Results are given in words; binding and its absence hold for the method and conditions named. Binding seen in cells or lysates may run through a third protein. Here binding means that the protein was enriched with, or labelled near, the bait; the list need not be complete.

The target of this test is PCDH10-HAV5 (epitope-tagged protocadherin10 from the Pcdh10-HAV5 knock-in mouse line) (mouse). Put plainly: affinity purification with mass spectrometry; Co-IP with Pierce anti-HA magnetic beads from lightly fixed (0.1% PFA) P7 Pcdh10-HAV5 telencephalon lysate (250 mM NaCl, 50 mM Tris pH 7.5, 0.05% n-dodecyl-β-D-maltoside); wild-type pups as control; hits chosen by HAV5/wild-type ratio >5; n = 5.

B1: ERC2 (protein, UniProt Q6PH08 1-957)
chain: MYGSARTISNLEGSPSRSPRLPRSPRLGHRRTSSGGGGGTGKTLSMENIQSLNAAYATSGPMYLSDHEGVASTTYPKGTMTLGRATNRAVYGGRVTAMGSSPNIASAGLSHTDVLSYTDQHGGLSGSSHHHHHQVPSMLRQVRDSTMLDLQAQLKELQRENDLLRKELDIKDSKLGSSMNSIKTFWSPELKKERVLRKEEAARMSVLKEQMRVSHEENQHLQLTIQALQDELRTQRDLNHLLQQESGNRGAEHFTIELTEENFRRLQAEHDRQAKELFLLRKTLEEMELRIETQKQTLNARDESIKKLLEMLQSKGLPSKSLEDDNERTRRMAEAESQVSHLEVILDQKEKENIHLREELHRRSQLQPEPAKTKALQTVIEMKDTKIASLERNIRDLEDEVQMLKANGVLNTEDREEEIKQIEVYKSHSKFMKTKIDQLKQELSKKESELLALQTKLETLSNQNSDCKQHIEVLKESLTAKEQRAAILQTEVDALRLRLEEKESFLNKKTKQLQDLTEEKGTLAGEIRDMKDMLEVKERKINVLQKKIENLQEQLRDKDKQLTNLKDRVKSLQTDSSNTDTALATLEEALSEKERIIERLKEQRERDDRERLEEIESFRKENKDLKEKVNALQAELTEKESSLIDLKEHASSLASAGLKRDSKLKSLEIAIEQKKEECNKLEAQLKKAHNIEDDSRMNPEFADRLKQLDKEASYYRDECGKAQAEVDRLLEILKEVENEKNDKDKKIAELESLTLRHMKDQNKKVANLKYNQQLEKKKNAQLLEEVRRREDSMVDNSQHLQIEELMNALEKTRQELDATKARLASTQQSLAEKEAHLANLRIERRKQLEEILEMKQEALLAAISEKDANIALLELSASKKKKTQEEVMALKREKDRLVHQLKQQTQNRMKLMADNYDEDHHHYHHHHHHHHHRSPGRSQHSNHRPSPDQDDEEGIWA
Take B1: the binding result is “binds”.
